For experiment [1], the target named is T1, predicted mature PD1 protein (amino acids 63-427) fused to the GAL4 DNA-binding domain (Arabidopsis thaliana) (UniProt Q84WN0).
T1 sequence: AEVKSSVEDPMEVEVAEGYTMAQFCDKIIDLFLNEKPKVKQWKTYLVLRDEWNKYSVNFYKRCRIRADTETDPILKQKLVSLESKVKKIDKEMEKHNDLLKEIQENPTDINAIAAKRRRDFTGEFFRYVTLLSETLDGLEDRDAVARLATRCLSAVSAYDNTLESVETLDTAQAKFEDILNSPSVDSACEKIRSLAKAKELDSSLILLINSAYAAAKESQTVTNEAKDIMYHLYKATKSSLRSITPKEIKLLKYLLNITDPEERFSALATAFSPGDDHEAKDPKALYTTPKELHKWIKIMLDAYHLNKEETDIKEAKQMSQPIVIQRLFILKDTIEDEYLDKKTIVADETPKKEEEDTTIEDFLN
Kind of experiment: two-hybrid; PD1-BD (pGBKT7) and PEP-β-AD (pGADT7) co-transformed into yeast AH109; growth on SD/-Trp-Leu-His-Ade, MEL1 activity with X-α-Gal; empty BD and AD vectors as negative controls.

Experiment [2] has as its target T1, predicted mature PD1 protein (amino acids 63-427) fused to the GAL4 DNA-binding domain (Arabidopsis thaliana). Put plainly: two-hybrid; screen of an Arabidopsis cDNA library (Mate & Plate, Matchmaker GAL4 system) with PD1(63-427)-GAL4 BD as bait; growth on selective plates, inserts sequenced.

No constants are given. Whether binding was seen depends on the method and setting. Some results given as binding are weak or reduced against the parent protein; the word gives no strength. Where a sequence is shown, tags or fusion partners need not be part of it.

B1: PEP-β fused to the GAL4 activation domain (protein, UniProt P50546 1-1072)
chain: MLGDEKEGTSAIPGFNQIQFEGFYRFIDQGLIEELAKFPKIEDIDHEIEFQLFVETYQLVEPLIKERDAVYESLTYSSELYVSAGLIWKTSRNMQEQRIFIGNIPLMNSLGTSIVNGIYRIVINQILQSPGIYYQSELDHNGISVYTGTIISDWGGRLELEIDKKARIWARVSRKQKISILVLSSAMGLNLREILENVCYPEIFLSFLTDKEKKKIGSKENAILEFYQQFSCVGGDPIFSESLCKELQKKFFHQRCELGRIGRRNINWRLNLNIPQNNIFLLPRDVLAAADHLIGMKFGMGTLDDMNHLKNKRIRSVADLLQDQLGLALARLENVVKGTISGAIRHKLIPTPQNLVTSTPLTTTYESFFGLHPLSQVLDRTNPLTQIVHGRKLSYLGPGGLTGRTANFRIRDIHPSHYGRICPIDTSEGINVGLIGSLSIHARIGDWGSLESPFYELFEKSKKARIRMLFLSPSQDEYYMIAAGNSLALNRGIQEEQAVPARYRQEFLTIAWEEVHLRSIFPFQYFSIGASLIPFIEHNDANRALMSSNMQRQAVPLSRSEKCIVGTGLERQVALDSGVPAIAEHEGKILYTDTEKIVFSGNGDTLSIPLIMYQRSNKNTCMHQKPQVRRGKCIKKGQILADGAATVGGELALGKNILVAYMPWEGYNFEDAVLISECLVYGDIYTSFHIRKYEIQTHVTTQGPERITKEIPHLEGRLLRNLDKNGIVMLGSWVETGDILVGKLTPQVAKESSYAPEDRLLRAILGIQVSTSKETCLKLPIGGRGRVIDVRWVQKKGGSSYNPEIIRVYISQKREIKVGDKVAGRHGNKGIISKILPRQDMPYLQDGRPVDMVFNPLGVPSRMNVGQIFECSLGLAGSLLDRHYRIAPFDERYEQEASRKLVFSELYEASKQTANPWVFEPEYPGKSRIFDGRTGDPFEQPVIIGKPYILKLIHQVDDKIHGRSSGHYALVTQQPLRGRSKQGGQRVGEMEVWALEGFGVAHILQEMLTYKSDHIRARQEVLGTTIIGGTIPKPEDAPESFRLLVRELRSLALELNHFLVSEKNFQINRKEV
B1: the binding result in experiment [1] is given as “binds”.

B2: PEP-β (rpoB) insert of the two-hybrid cDNA library, starting with residue 866 (domain or fragment, UniProt P50546 866-1072)
chain: GQIFECSLGLAGSLLDRHYRIAPFDERYEQEASRKLVFSELYEASKQTANPWVFEPEYPGKSRIFDGRTGDPFEQPVIIGKPYILKLIHQVDDKIHGRSSGHYALVTQQPLRGRSKQGGQRVGEMEVWALEGFGVAHILQEMLTYKSDHIRARQEVLGTTIIGGTIPKPEDAPESFRLLVRELRSLALELNHFLVSEKNFQINRKEV
As for B2, in experiment [2], the binding entry is given as “binds”.

These data come from article PMC8705867.
